Measurements: patent publication US20210270842A1
Positions count from the first letter of the chain named. These are yes or no findings as the source states them, for the method shown. Some entries that bind do so weakly or less than the wild type.

Protein sequences, listed by entry. Tags and fused reporters are not part of them. Lines headed by an entry give the natural chain unless they say otherwise; changes in a name come on top.
UniProt P01042: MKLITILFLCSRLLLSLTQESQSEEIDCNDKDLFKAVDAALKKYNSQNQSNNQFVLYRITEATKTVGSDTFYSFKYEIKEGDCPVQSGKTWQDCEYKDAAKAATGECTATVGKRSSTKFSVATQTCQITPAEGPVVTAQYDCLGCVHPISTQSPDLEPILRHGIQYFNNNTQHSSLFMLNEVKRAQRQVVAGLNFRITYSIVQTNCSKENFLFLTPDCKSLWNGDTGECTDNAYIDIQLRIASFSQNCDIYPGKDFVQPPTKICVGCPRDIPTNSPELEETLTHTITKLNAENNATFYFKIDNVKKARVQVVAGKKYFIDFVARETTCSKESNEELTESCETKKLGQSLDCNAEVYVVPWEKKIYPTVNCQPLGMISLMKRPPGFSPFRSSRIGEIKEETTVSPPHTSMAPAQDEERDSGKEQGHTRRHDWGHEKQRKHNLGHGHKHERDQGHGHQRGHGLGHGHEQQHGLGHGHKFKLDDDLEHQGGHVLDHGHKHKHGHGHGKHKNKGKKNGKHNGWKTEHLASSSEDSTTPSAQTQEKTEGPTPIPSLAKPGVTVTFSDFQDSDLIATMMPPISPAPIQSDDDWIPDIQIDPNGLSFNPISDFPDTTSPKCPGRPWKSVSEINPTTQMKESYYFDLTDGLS

B1: 559B-M0064-H02 (Fab, V domains shown)
VH: EVQLLESGGGLVQPGGSLRLSCAASGFTFSQYIMGWVRQAPGKGLEWVSSIGSSGVTVYADSVKGRFTISRDNSKNTLYLQMNSLRAEDTAVYYCARGGGVTVLHAFDIWGQGTMVTVSS
VL: QSALTQPASVSGSPGQSITISCTGTSSDVGGYNYVSWYQQHPGKVPKLIIYEGNKRPSGVPDRFSGSKAGNTASLTVSGLQAEDEADYYCTAYGGHSRFYVFGTGTKVTVLG
B2: 559B-M0070-H10 (Fab, V domains shown)
VH: EVQLLESGGGLVQPGGSLRLSCAASGFTFSTYGMRWVRQAPGKGLEWVSVISPSGGKTNYADSVKGRFTISRDNSKNTLYLQMNSLRAEDTAVYYCARGRPDYYAMDVWGQGTTVTVSS
VL: QSALTQPPSASGAPGQRVTISCSGSSSNIGSNTVNWYQKLPGTAPKLLIYYNDRRPSGVPDRFSGSKSGNTASLTISGLQAEDEADYYCAAWDDSLSGPVFGGGTKLTVL
B3: 559B-M0067-G11 (Fab, V domains shown)
VH: EVQLLESGGGLVQPGGSLRLSCAASGFTFSPYEMVWVRQAPGKGLEWVSSIVPSGGWTVYADSVKGRFTISRDNSKNTLYLQMNSLRAEDTAVYYCASPSGRGLAFDIWGQGTMVTVSS
VL: DIQMTQSPGTLSLSPGERATLSCRASQSISSSYLAWYQQKPGQAPRLLIYGASSRATGVPDRFSGSGSGTEFTLTISSLQPEDFATYYCLQQKSYPYTFGQGTKVEIK
B4: 559B-M0054-B11 (Fab, V domains shown)
VH: EVQLLESGGGLVQPGGSLRLSCAASGFTFSYYGMNWVRQAPGKGLEWVSVISPSGGLTVYADSVKGRFTISRDNSKNTLYLQMNSLRAEDTAMYYCATGFAVQHGGGAFDIWGQGTMVTVSS
VL: DIQMTQSPATLSMSPGERATLSCRASQSVTTYLAWYQQKPGQAPRLLIYDASIRATGVPARFSGSGSGTDFTLTISRLEPEDFAVYYCQQRTIWPLTFGGGTKVEIK
B5: 559B-M0004-E08 (Fab, V domains shown)
VH: EVQLLESGGGLVQPGGSLRLSCAASGFTFSMYHMNWVRQAPGKGLEWVSSIYSSGGSTRYADSVKGRFTISRDNSKNTLYLQMNSLRAEDTAVYYCARGVRYGMDVWGQGTTVTVSS
VL: DIQMTQSPSSVSASVGDRVTITCRASQGISSWLAWYQQKPGKAPKLLIYAASSLQSGVPSRFSGSGSGTDFTLTISSLQPEDFATYYCQQANSFPITFGQGTRLEIK
B6: 559B-M0069-C09 (Fab, V domains shown)
VH: EVQLLESGGGLVQPGGSLRLSCAASGFTFSMYDMHWVRQAPGKGLEWVSSISSSGGYTQYADSVKGRFTISRDNSKNTLYLQMNSLRAEDTAMYYCARDRGLIAAAGGFDPWGQGTLVTVSS
VL: DIQMTQSPSSLSASVGDRVTITCRASQSIGIYLNWYQQKPGTAPKLLIYAASSLQSGVPSRFTGSGSGTDFTLTISSLQPDDFATYYCQRTYGRPLTFGGGTKVEIK
B7: 559B-M0065-B10 (Fab, V domains shown)
VH: EVQLLESGGGLVQPGGSLRLSCAASGFTFSKYFMTWVRQAPGKGLEWVSWISSSGGYTNYADSVKGRFTISRDNSKNTLYLQMNSLRAEDTAVYYCARGAYYYDAFDIWGQGTMVTVSS
VL: DIQMTQSPSSLSASVGDRVTITCRASQSIAIFLNWYQQTPGKPPKLLIYGASTLQSGVPSRFSGSGSGADFTLTISNLQLEDFTTYYCQQSYSTLYTFGQGTKLEIK
B8: 559B-M0039-G07 (Fab, V domains shown)
VH: EVQLLESGGGLVQPGGSLRLSCAASGFTFSRYRMRWVRQAPGKGLEWVSGISPSGGWTYYADSVKGRFTISRDNSKNTLYLQMNSLRAEDTAVYYCTTDNGDYALAHWGQGTLVTVSS
VL: DIQMTQSPSSLSASVGDRVTITCRASQRIINYLNWYQQKPGKAPKLLIYAASSLQSGVPSRFSGSGSGTDFTLTISSLQPEDFATYYCQQSYSAPLTFGGGTRVEIK
B9: 559B-M0003-A08 (Fab, V domains shown)
VH: EVQLLESGGGLVQPGGSLRLSCAASGFTFSAYVMRWVRQAPGKGLEWVSSIGSSGGPTYYADSVKGRFTISRDNSKNTLYLQMNSLRAEDTAVYYCARRGGSGSSHAFDIWGQGTMVTVSS
VL: B8 VL with R28S, I30S, N31S, F83S, A84G, S91Y, Y92N, A94F, R103K
B10: 559B-M0068-D01 (Fab, V domains shown)
VH: EVQLLESGGGLVQPGGSLRLSCAASGFTFSIYPMSWVRQAPGKGLEWVSGISPSGGKTAYADSVKGRFTISRDNSKNTLYLQMNSLRAEDTAVYYCARGQGRAVRGKLYYYGMDVWGQGTTVTVSS
VL: QSALTQPPSASQTPGQTVTISCSGSSSNIGTNNVNWYQQLPGTAPKLLISSHHRRPSGVPDRFSASKSGTSASLAISGLQSEDEADYYCAAWDDSLNGPVFGGGTKLTVL

target: cleaved high molecular weight kininogen (HMWK) (human) (UniProt P01042); experiment: ELISA; Fab coated on plate, biotinylated antigen

| binding | Binder |
| --- | --- |
| binds | B1 |
| binds | B2 |

target: cleaved high molecular weight kininogen (HMWK) (human) (UniProt P01042); experiment: ELISA; Fab coated on 96-well plate, biotinylated antigen, streptavidin-HRP

| binding | Binder |
| --- | --- |
| binds | B1 |
| binds | B3 |
| binds | B4 |
| binds | B2 |
| binds | B5 |
| binds | B6 |
| binds | B7 |
| binds | B8 |
| binds | B9 |
| binds | B10 |

target: cleaved high molecular weight kininogen (HMWK) (human) (UniProt P01042); experiment: Fab passively immobilized on 384-well plate, biotinylated antigen, streptavidin-HRP

| binding | Binder |
| --- | --- |
| binds | B1 |
| binds | B2 |

target: cleaved high molecular weight kininogen (HMWK) (human) (UniProt P01042); experiment: ELISA: Fab coated on 96-well plate, LowCross block, biotinylated antigen, streptavidin-HRP; signal over uncoated well

| binding | Binder |
| --- | --- |
| binds | B3 |
| binds | B4 |
| binds | B2 |
| binds | B5 |
| binds | B6 |
| binds | B7 |
| binds | B8 |
| binds | B9 |
| binds | B10 |
